These are yes or no findings as the source states them, for the method shown. Some entries that bind do so weakly or less than the wild type.

Protein sequences, listed by entry. Tags and fused reporters are not part of them. Lines headed by an entry give the natural chain unless they say otherwise; changes in a name come on top.
UniProt P17931: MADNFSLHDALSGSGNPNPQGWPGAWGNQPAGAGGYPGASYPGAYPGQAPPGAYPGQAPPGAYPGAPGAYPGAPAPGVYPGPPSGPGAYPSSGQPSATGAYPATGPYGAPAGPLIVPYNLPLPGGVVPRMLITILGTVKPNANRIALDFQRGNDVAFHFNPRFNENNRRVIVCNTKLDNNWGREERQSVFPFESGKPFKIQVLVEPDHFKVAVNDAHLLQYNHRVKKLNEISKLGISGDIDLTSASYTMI
UniProt P11166: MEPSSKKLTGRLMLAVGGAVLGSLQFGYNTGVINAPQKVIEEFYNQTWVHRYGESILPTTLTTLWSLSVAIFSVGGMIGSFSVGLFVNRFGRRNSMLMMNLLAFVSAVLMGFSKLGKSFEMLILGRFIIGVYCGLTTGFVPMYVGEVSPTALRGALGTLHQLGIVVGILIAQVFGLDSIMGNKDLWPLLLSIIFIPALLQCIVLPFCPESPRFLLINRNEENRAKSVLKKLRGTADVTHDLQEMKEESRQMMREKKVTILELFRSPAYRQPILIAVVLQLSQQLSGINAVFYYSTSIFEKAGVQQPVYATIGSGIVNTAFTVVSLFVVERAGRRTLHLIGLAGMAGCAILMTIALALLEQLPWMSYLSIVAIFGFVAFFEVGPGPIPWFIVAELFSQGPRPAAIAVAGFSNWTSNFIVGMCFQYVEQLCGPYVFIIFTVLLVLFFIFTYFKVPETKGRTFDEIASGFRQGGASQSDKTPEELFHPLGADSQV

Binding data for one substance are collected here from patent publication US20220411514A1, “ANTI-GAL3 ANTIBODIES AND METHODS OF USE FOR INSULIN RESISTANCE” (TrueBinding, Inc., priority 2021, published 2022).

The assay has as its target human Galectin-3 (Gal3) (human) (UniProt P17931). Nature of the assay: ELISA, FLAG-tagged GLUT on coated Gal3. (ELISA stands for enzyme-linked immunosorbent assay.)

Consider “GLUT1 protein tagged with FLAG (from UniProt P11166 1-492)”, for which the binding result is recorded as “binds”.
